# Reference: article PMC10986487, “Epidrugs: alternative chemotherapy targeting Theileria annulata schizont stage parasites” (Microbiology Spectrum, 2024)
# pIC50: −log10 of the molar value.
# Tested on: T. annulata-infected bovine cells
# Assay: Resazurin-based drug susceptibility assay, 2-fold serial dilutions, 48 hours
# Format: cell-based
# Details: Theileria annulata, 0.019 µM to 10 µM, read-out: IC50 against T. annulata-infected cells
# Protocol: In this study, we conducted a screening of 148 compounds from the Cayman epigenetics library against the asexual schizont stage of T. annulata-infected bovine cells to assess their potential anti-theilerial activity (Fig. 1A). The initial screening involved testing the compounds at a concentration of 10 µM, with BPQ serving as the internal control. […] Subsequently, we performed drug susceptibility assays on the selected 27 compounds to determine their 50% inhibitory concentration (IC50) values against T. annulata-infected cells. To do this, 2-fold serial dilutions ranging from 0.019 µM to 10 µM were prepared, and the percentage of cell death was assessed after 48 hours using resazurin-based assays.
# Fig 1 Screening of epigenetic inhibitors for potential anti-theilerial activity in T. annulata-infected cells. (A) List of compounds and their functional classes used in this study. (B) Inhibition (%) of the hits (n = 27) with anti-theilerial activity when screened in T. annulata-infected cells, where the cut-off (--) was set at 50% inhibition. […] (E) Flow cytometry-based detection of annexin V-positive T. annulata-infected cells upon drug treatment for detection of early apoptosis.
smiles,measurement,value
O=C(CCCCCCC(=O)Nc1ccccc1)NO [SAHA],pIC50,7.00
